A: 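Whole-cell assay for inhibitors of Mycobacterium tuberculosis growth, labelled Cornell in the record; the read-out is not stated. The concentration is filed as 10 mM, unlikely as a test dose, so the dose is not known. The record gives no direction; compounds strong in two other growth screens of this library score well above the rest, so higher reads as stronger inhibition. Of about 53,000 compounds tested this way, about 900 (1.7%) reached 50% or more in at least one test.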
B: 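Assay on Mycobacterium tuberculosis, filed only as a heat shock assay from Cornell; the read-out is not stated. The concentration is filed as 10 mM, unlikely as a test dose, so the dose is not known. The record gives no direction; compounds that gave an IC50 in retests scored well above the rest, so higher reads as stronger inhibition. About 69,000 compounds were tested under these conditions; 1.4% (about 930) showed 50% or more at least once.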

Results are given as percent effect. How 0% and 100% were set is not recorded. Most values in the screen are low, and negative values occur. The compounds are a random part of those screened.

- Cc1ccc(-c2ccc(CC3NCCN(C)C3=O)cc2)cc1.Cl (centres undefined) : A: -39.51%; B: -20.93%
- N#CC1(NC(=O)COC(=O)Cn2cccn2)CCCC1 : A: -5.51%; B: -9.223%
- CN(C)c1nc(N)nc(CN2CCC(c3nc4ccccc4o3)CC2)n1 : B: -188.3%
- CC(C)CN1CCC(NC(=O)c2ccc(F)cc2F)CC1 : A: -11.92%; B: -6.972%
- Cc1ccc(-c2ccnc(NC(C)c3n[nH]c(C)n3)n2)c(C)n1 (centres undefined) : A: -11.5%; B: 0.5323%
- Cc1nn(C)c(C)c1CN(C)C(=O)c1cc(C(F)(F)F)n(C)n1 : B: 11.1%
- Cc1ccc2c(n1)N(Cc1csc(C)n1)CCN(C1CCOC1)C2.O=C(O)C(F)(F)F.O=C(O)C(F)(F)F (centres undefined) : A: -15.31%; B: 5.62%
- CCc1ccc(C2CCCN2C(=O)CNC(=O)CCC(C)C)o1 (centres undefined) : B: 3.162%
- O=C(O)CC1CN(S(=O)(=O)c2cccc(F)c2)c2ccccc21 (centres undefined) : A: -0.9797%; B: -11.43%
- Cc1ccn(-c2cncc(C(N)=O)c2)n1 : A: 2.937%; B: 13.47%
- CCOc1ccc(-n2nc(C)c(CC(C)=O)c2C)cc1C(N)=O : B: 11.44%
- O=C(O)C(F)(F)F.[H][C@@]12CCCO[C@]1([H])[C@@H](NC(=O)C1CC1)CN2Cc1cccc(C#N)c1 : A: 22.16%; B: -0.04733%
- CC(C)c1nc(C2CCCN(C(=O)CCc3cscn3)C2)no1 (centres undefined) : A: -12.42%; B: -0.1639%
- COc1ccccc1CCNS(=O)(=O)N1CCOCC1 : A: -2.569%; B: 9.649%
- Cc1nc(CN(C)Cc2cn[nH]c2-c2ccc(F)cc2)c[nH]1 : A: 0.7353%; B: -19.82%
- COCCNC(=O)N1CCC(NC(C)C)CC1 : A: -68.21%; B: -20.5%
- COC(=O)CNc1cc(C(=O)NCC(F)(F)F)cc(F)c1C : A: 19.99%; B: 21.11%
- CC(O)CN1CCN(Cc2coc(-c3ccccc3Cl)n2)CC1 (centres undefined) : B: -165.1%
- [H][C@@]12CO[C@@H](CNS(C)(=O)=O)[C@]1([H])CCN(C(=O)c1cnccn1)C2 : A: 5.781%; B: 1.343%
- c1cn(CC2CCOCC2)c(-c2cc(CN3CCCC3)cs2)n1 : A: 20.72%; B: 7.39%
- Cc1noc(NC(=O)c2cccc(Br)c2)n1 : A: 106.3%; B: 106.8%
- COCc1n[nH]c2c1CN(Cc1cccs1)C2.O=C(O)C(F)(F)F : A: 2.254%; B: -38.91%
- CCCc1nnc(NC(=O)NC(C)Cn2cccn2)s1 (centres undefined) : B: -2.291%
- Cc1cncc(C(=O)N2CC[C@@]3(C[C@H](NS(C)(=O)=O)CCO3)C2)c1.O=C(O)C(F)(F)F : A: -57.07%; B: -8.292%
- Cc1cc(C)n(C2CCCN(C(=O)c3cccc4[nH]ncc34)C2)n1 (centres undefined) : A: 2.237%; B: 4.402%
- O=C(CCc1ccncc1)Nc1ccc(OCC2CCOCC2)cc1 : A: 21.49%; B: 1.666%
- Fc1ccc2[nH]c(C3CCCN3CCCn3cccn3)nc2c1 (centres undefined) : A: 16.03%; B: -23.88%
- Cc1cccc(N2CCN(C(=O)NC(C)c3nncn3C)CC2)c1 (centres undefined) : A: -42.84%; B: -26.99%
- CCCOc1ccc2c(c1)OCC(C(=O)NC(C)Cn1ccnc1)=C2 (centres undefined) : A: 19.05%; B: 3.157%
- CN(C)c1nccc(CNC(=O)NC(C)(C)C)n1 : A: 2.733%; B: -10.93%
- COc1cc(Cl)cc(CN2CCCC(N3CCOCC3)C2)c1OC (centres undefined) : A: 18.66%; B: 2.91%
- COCc1nc(C(=O)NS(=O)(=O)c2ccc(Cl)cc2F)cs1 : B: 14.26%
- Cc1ccc(CC(=O)N2CCC(Nc3cccnn3)CC2)s1 : B: 12.56%
- CNC(=O)Cc1noc(-c2cc3c(s2)CCC(C)C3)n1 (centres undefined) : A: 19.4%; B: -26.83%
- CN(C)C(C(=O)N1CCC(N2CCSCC2)CC1)c1ccccc1F (centres undefined) : A: -24.65%; B: 64.18%
- CCCn1ncc(CN(CCN(C)C)Cc2ccsc2)c1C : A: 18.73%; B: -24.53%
- CSCC(=O)NC(Cc1ccc(C)cc1)c1ccccn1 (centres undefined) : A: -0.7608%; B: -3.213%
- COc1ccc(C(C)NS(=O)(=O)c2ccc3c(c2)CCC(=O)N3)cc1F (centres undefined) : A: 1.631%; B: -4.713%
- Cc1cc(NC(=O)NCc2ccncc2)ccc1OC(C)C : A: 88.24%; B: -1.813%
- COCCNC(=O)NC1CCN(c2cnn(C)c2)C1 (centres undefined) : A: -55.11%; B: -0.8919%
- CN(C)c1cccc(C(=O)Nc2cnn(Cc3ccccn3)c2)c1 : A: 3.855%; B: -5.113%
- CCS(=O)(=O)NCC1Cn2nnc(-c3ccccc3)c2CO1 (centres undefined) : A: 27.54%; B: -6.182%
- CNC(=O)CN1CCOCC2(CCCN(Cc3ccc(F)cc3)C2)C1.O=C(O)C(F)(F)F.O=C(O)C(F)(F)F (centres undefined) : A: 28.62%; B: -6.144%
- Cc1ccccc1CNCc1cc(Cl)ccc1O : A: 38.46%; B: 10.77%
- CCN(Cc1noc(CC(C)C)n1)Cc1cccc(F)c1O : A: 16.69%; B: 3.495%
- Cc1ccc(C)c(CS(=O)(=O)CC(=O)N(C)Cc2cccc(F)c2)c1 : A: -42.52%; B: -18.02%
- CN(Cc1nc(-c2cccs2)no1)Cc1nc2c(s1)CCCC2 : B: -38.34%

Once more, the final 2:

- Cc1ccc(C)c(CS(=O)(=O)CC(=O)N(C)Cc2cccc(F)c2)c1 : A: -42.52%; B: -18.02%
- CN(Cc1nc(-c2cccs2)no1)Cc1nc2c(s1)CCCC2 : B: -38.34%

Data taken from ChEMBL document CHEMBL3988442, “University of Dundee, Small-Polar-MMV Screening Library” (2021).